Experimental data reported in patent US20120308578A1.
Results are given in words; binding and its absence hold for the method and conditions named. Some entries that bind do so weakly or less than the wild type.

Sequences of proteins named here, by UniProt entry; tags and fusion partners are left off. Residues count along the entry.
UniProt O75888, residues 105-250: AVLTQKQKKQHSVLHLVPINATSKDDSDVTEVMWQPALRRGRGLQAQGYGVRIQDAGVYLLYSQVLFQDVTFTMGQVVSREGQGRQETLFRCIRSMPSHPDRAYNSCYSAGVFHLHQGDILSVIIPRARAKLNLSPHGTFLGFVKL

Biological target: T1, syndecan-1 (CD138) expressed on the surface of SLE-DCs (human) (UniProt P18827)
T1 sequence (heparan sulfate proteoglycan (glycosaminoglycan chains; sites not stated), looked up): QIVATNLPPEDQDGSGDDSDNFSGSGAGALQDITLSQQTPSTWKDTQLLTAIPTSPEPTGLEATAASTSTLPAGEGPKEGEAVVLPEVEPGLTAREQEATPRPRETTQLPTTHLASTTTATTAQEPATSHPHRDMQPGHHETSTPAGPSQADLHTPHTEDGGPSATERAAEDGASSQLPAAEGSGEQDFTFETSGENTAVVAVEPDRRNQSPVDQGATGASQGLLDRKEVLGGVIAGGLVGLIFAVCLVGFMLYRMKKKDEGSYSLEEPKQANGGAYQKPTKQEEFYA
Experiment: flow cytometry, APRIL trimer titrated on SLE-DCs for 30 min, detected with anti-human APRIL Ab

binding: binds
Substance: APRIL trimer (ZymoGenetics) (from UniProt O75888 105-250) (ligand)
